From article PMC7862700 come the findings set out here.

Protein sequences, listed by entry. Tags and fused reporters are not part of them. Lines headed by an entry give the natural chain unless they say otherwise; changes in a name come on top.
UniProt Q01892: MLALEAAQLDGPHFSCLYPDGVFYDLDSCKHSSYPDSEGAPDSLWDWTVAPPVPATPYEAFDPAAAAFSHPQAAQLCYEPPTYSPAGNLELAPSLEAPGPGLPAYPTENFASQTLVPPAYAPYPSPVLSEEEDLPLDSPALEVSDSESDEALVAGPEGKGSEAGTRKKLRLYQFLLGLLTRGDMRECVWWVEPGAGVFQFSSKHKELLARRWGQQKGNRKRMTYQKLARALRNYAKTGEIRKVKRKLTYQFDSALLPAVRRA
UniProt P41161: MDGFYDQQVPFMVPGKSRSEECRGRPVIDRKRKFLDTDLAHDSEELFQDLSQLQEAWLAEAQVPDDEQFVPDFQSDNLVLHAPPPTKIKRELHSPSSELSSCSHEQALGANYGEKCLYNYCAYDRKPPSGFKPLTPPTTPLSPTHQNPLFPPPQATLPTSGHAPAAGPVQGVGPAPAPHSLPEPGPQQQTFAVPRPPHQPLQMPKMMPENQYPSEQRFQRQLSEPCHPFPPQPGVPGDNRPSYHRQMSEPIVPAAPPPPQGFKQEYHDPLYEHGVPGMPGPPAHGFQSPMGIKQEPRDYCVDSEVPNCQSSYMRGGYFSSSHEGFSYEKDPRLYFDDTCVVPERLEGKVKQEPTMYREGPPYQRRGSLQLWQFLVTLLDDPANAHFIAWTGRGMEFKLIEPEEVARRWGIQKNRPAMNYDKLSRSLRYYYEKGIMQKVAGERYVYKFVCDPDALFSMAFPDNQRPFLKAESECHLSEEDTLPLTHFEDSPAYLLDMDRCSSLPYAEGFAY
UniProt Q99607: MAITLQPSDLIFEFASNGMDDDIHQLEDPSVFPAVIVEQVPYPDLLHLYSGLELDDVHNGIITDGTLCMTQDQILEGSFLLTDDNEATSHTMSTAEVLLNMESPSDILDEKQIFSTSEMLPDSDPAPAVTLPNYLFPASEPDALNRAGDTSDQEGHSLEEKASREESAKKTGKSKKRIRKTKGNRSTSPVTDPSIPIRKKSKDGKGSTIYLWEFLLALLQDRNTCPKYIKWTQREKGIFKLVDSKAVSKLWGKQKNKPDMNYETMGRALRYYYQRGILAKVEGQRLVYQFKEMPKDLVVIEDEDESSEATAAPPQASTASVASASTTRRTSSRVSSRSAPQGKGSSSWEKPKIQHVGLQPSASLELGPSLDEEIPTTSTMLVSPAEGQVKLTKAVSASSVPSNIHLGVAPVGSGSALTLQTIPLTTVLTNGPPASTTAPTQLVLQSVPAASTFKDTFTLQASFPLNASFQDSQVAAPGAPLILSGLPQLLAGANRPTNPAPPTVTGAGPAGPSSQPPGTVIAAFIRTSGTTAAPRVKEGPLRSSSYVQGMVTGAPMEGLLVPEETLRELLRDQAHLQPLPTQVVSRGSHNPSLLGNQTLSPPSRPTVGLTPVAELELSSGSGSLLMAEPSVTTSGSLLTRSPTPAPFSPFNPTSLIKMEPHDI

This is a selection; strong and weak results do not stand in their true shares. At the low end of the ranking, values are background and their order means little.

What all share (experiment): DAPPL (digital affinity profiling via proximity ligation, sequencing)
Holding throughout (details): 10 mM Tris-HCl pH 7.5, 50 mM NaCl, 1 mM DTT, 4% glycerol, room temperature, 30 min; GST-TFs on glutathione beads, 16-mer random dsDNA library, 0.1% …; high values mean tight binding; double strand, one strand shown; scale: fold enrichment (6-mer frequency, TF over GST control)

Assay [1] deals with T1, FLI1 (UniProt Q01543).
T1 sequence: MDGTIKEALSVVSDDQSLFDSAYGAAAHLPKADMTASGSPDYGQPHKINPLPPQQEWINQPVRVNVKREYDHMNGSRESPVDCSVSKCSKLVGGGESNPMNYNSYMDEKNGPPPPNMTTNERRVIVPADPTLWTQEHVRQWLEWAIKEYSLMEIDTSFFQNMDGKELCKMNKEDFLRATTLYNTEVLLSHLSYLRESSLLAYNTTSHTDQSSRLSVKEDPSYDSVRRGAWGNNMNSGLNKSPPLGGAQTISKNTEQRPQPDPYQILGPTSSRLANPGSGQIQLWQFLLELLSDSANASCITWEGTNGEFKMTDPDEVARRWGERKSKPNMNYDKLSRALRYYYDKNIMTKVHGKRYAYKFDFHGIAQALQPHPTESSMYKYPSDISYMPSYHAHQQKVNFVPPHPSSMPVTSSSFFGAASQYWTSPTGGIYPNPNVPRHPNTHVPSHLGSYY

The target of assay [2] is T2, EHF (UniProt Q9NZC4).
T2 sequence: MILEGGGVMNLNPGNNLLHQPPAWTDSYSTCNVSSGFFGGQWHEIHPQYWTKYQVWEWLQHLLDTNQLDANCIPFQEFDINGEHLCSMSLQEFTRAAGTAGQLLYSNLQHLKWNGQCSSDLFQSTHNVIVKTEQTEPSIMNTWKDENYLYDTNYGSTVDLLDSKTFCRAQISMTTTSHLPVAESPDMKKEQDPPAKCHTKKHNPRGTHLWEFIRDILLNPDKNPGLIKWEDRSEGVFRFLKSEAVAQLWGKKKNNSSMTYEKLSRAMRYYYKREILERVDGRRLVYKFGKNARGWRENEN

Assay [3] deals with SPIB (UniProt Q01892).
Assay [4] addresses ETV5 (UniProt P41161).
The target of assay [5] is ELF4 (UniProt Q99607).
Assay [6] addresses T3, ETV2 (UniProt O00321).
T3 sequence: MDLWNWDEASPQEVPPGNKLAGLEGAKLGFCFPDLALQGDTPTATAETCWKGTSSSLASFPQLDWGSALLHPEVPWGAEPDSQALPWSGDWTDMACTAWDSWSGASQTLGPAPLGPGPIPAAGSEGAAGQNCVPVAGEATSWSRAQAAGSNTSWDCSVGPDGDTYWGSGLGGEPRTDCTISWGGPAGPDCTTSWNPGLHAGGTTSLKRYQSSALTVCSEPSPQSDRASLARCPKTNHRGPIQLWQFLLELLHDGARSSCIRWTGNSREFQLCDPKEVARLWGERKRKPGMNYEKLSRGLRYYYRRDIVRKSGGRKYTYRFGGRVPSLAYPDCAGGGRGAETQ

The target of assay [7] is T4, ETV3L (UniProt Q6ZN32).
T4 sequence: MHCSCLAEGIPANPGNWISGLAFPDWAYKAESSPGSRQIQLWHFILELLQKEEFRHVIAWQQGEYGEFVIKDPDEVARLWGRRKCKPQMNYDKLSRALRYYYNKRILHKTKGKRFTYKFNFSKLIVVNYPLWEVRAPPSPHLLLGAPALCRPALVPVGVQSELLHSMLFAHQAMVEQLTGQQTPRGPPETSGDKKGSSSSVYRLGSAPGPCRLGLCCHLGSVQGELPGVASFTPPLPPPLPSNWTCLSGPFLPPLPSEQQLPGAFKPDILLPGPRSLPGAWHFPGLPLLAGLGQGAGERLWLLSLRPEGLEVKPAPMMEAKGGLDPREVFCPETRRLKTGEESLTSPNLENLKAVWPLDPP

Regarding GGTAGC, the binding signal in assay [1] worked out at 0.898; in assay [2] it was 0.816; in assay [3], 0.828; in assay [4], 0.824; in assay [5], 0.824; in assay [6], 0.859. Further, the binding signal in assay [7] is 0.83.
Consider AGTCAA, for which the binding signal stood at 0.595 in assay [1]; 0.609 in assay [2]; 0.57 in assay [3]; 0.656 in assay [4]; 0.611 in assay [5]; 0.659 in assay [6]. The same sequence showed a binding signal in assay [7] of 0.647.
As for TCGCAG, the binding signal in assay [1] is 0.862; in assay [2] it was 0.841; in assay [4], 0.846; in assay [5] it was 0.893; in assay [6], 0.982; in assay [7], 0.846.
TGCAGG: the binding signal in assay [1] was 0.961; in assay [2], 0.976; in assay [4], 0.986; in assay [5] it was 0.948; in assay [6], 1.03; in assay [7] it was 0.954.
Regarding GGGGTC, the binding signal in assay [1] was 0.618; in assay [2], 0.655; in assay [3] it was 0.615; in assay [4], 0.625; in assay [5] it was 0.641; in assay [6] it was 0.677. The sequence further came in with a binding signal in assay [7] of 0.687.
Turning to GGATGA, the binding signal amounted to 0.927 in assay [1]; 0.963 in assay [4]; 0.919 in assay [5]; 0.759 in assay [6]; 0.957 in assay [7].
In the case of GAGACT, the binding signal in assay [1] was found to be 0.422; in assay [2], 0.358; in assay [3] it was 0.382; in assay [4] it was 0.408; in assay [5], 0.4; in assay [6] it was 0.384. For the same sequence, in assay [7], the binding signal was 0.39.
Take GAGGCT: the binding signal stood at 0.597 in assay [1]; 0.603 in assay [2]; 0.587 in assay [3]; 0.585 in assay [4]; 0.621 in assay [5]; 0.615 in assay [6]. In assay [7], this sequence yielded a binding signal of 0.638.
Regarding CGTGCT, the binding signal in assay [1] came out at 0.868; in assay [2], 0.816; in assay [3], 0.855; in assay [4], 0.802; in assay [5], 0.848; in assay [6], 0.825. Besides, the binding signal in assay [7] was found to be 0.873.
In the case of GCAGAG, the binding signal in assay [1] came out at 0.711; in assay [2], 0.667; in assay [3], 0.601; in assay [4], 0.647; in assay [5], 0.667; in assay [6], 0.727. In assay [7], this sequence displayed a binding signal of 0.677.
For CGGTAG, the binding signal in assay [1] worked out at 0.699; in assay [2] it was 0.715; in assay [3], 0.65; in assay [4] it was 0.752; in assay [5] it was 0.771; in assay [6] it was 0.71. Moreover, in assay [7], the binding signal turned out to be 0.743.
Turning to TTCGTG, the binding signal in assay [1] was found to be 0.886; in assay [2] it was 0.847; in assay [4], 0.91; in assay [5] it was 0.877; in assay [6], 0.751; in assay [7], 0.969.
As to GAACAG, the binding signal was found to be 0.909 in assay [1]; 0.93 in assay [4]; 0.924 in assay [5]; 0.906 in assay [6]; 0.948 in assay [7].
Consider GGTAGT, for which the binding signal worked out at 0.781 in assay [1]; 0.711 in assay [2]; 0.778 in assay [3]; 0.803 in assay [4]; 0.765 in assay [5]; 0.801 in assay [6]. The binding signal in assay [7] amounted to 0.732.
On to TTGGAG, for which the binding signal in assay [1] was 0.535; in assay [2], 0.549; in assay [3], 0.547; in assay [4], 0.566; in assay [5] it was 0.531; in assay [6] it was 0.469. This sequence also gave a binding signal in assay [7] of 0.515.
For the sequence CAGTAA, the binding signal stood at 0.716 in assay [1]; 0.736 in assay [2]; 0.73 in assay [3]; 0.722 in assay [4]; 0.757 in assay [5]; 0.79 in assay [6]. In assay [7], this sequence registered a binding signal of 0.717.
As for GATCCG, the binding signal worked out at 0.989 in assay [1]; 0.95 in assay [2]; 0.993 in assay [4]; 0.9 in assay [5]; 0.941 in assay [6]; 0.979 in assay [7].
Take GCAACG: the binding signal is 0.937 in assay [1]; 0.977 in assay [2]; 0.954 in assay [3]; 0.933 in assay [4]; 0.994 in assay [5]; 0.797 in assay [6]. The sequence also displayed a binding signal in assay [7] of 0.953.
For GTGGTG, the binding signal in assay [1] was 0.871; in assay [2], 0.889; in assay [4], 0.936; in assay [5], 0.904; in assay [6] it was 0.732; in assay [7], 0.95.
As to AGCAGT, the binding signal in assay [1] is 0.74; in assay [2], 0.737; in assay [3], 0.672; in assay [4], 0.677; in assay [5], 0.733; in assay [6], 0.701. This sequence also had a binding signal in assay [7] of 0.755.
As for TGTCGA, the binding signal is 0.904 in assay [1]; 0.863 in assay [2]; 0.853 in assay [3]; 0.892 in assay [4]; 0.904 in assay [5]; 0.742 in assay [6]. Besides, the binding signal in assay [7] came out at 0.785.
